Source: the supplement of paper PMC7661543
Differences between knockout arms are mostly noise.

Test system: BT-20
Assay: relative cell number vs DMSO control (72 h) (% of DMSO); higher = less growth inhibition (more cells)
Protocol: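 QMAP-Seq: a pool of 5 breast cancer cell lines (ZR-75-1, SKBR3, HCC-38, MDA-MB-231, BT-20), each carrying 12 doxycycline-inducible Cas9 sgRNA perturbations (11 knockouts plus non-targeting sgNT), was treated with compounds for 72 h at four 10-fold doses (10 nM-10 uM or 1 nM-1 uM range). Barcodes were amplified and sequenced, and cell number was interpolated from 293T spike-in standard curves. The result is expressed as % of the median of DMSO wells. Two biological replicates.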

C=CCc1cccc(/C=N/NC(=O)CN2CCN(Cc3ccccc3)CC2)c1O [PAC1]
Details | relative cell number
sgRNA knockout: sgATF3, 10 nM | 93.4
sgRNA knockout: sgATF3, 100 nM | 93.6
sgRNA knockout: sgATF3, 1000 nM | 80.5
sgRNA knockout: sgATF3, 10000 nM | 43.3
sgRNA knockout: sgATF4, 10 nM | 97.4
sgRNA knockout: sgATF4, 100 nM | 91.6
sgRNA knockout: sgATF4, 1000 nM | 92.7
sgRNA knockout: sgATF4, 10000 nM | 44.3
sgRNA knockout: sgATF6, 10 nM | 94.3
sgRNA knockout: sgATF6, 100 nM | 74.1
sgRNA knockout: sgATF6, 1000 nM | 93.75
sgRNA knockout: sgATF6, 10000 nM | 40.95
sgRNA knockout: sgATG7, 10 nM | 88.8
sgRNA knockout: sgATG7, 100 nM | 87.6
sgRNA knockout: sgATG7, 1000 nM | 80.8
sgRNA knockout: sgATG7, 10000 nM | 41.7
sgRNA knockout: sgERN1, 10 nM | 96.062
sgRNA knockout: sgERN1, 100 nM | 89.3
sgRNA knockout: sgERN1, 1000 nM | 105
sgRNA knockout: sgERN1, 10000 nM | 43
sgRNA knockout: sgHSF1, 10 nM | 102
sgRNA knockout: sgHSF1, 100 nM | 86.1
sgRNA knockout: sgHSF1, 1000 nM | 92.2
sgRNA knockout: sgHSF1, 10000 nM | 45.9
sgRNA knockout: sgHSF2, 10 nM | 83.6
sgRNA knockout: sgHSF2, 100 nM | 96.7
sgRNA knockout: sgHSF2, 1000 nM | 75.6
sgRNA knockout: sgHSF2, 10000 nM | 39.8
sgRNA knockout: sgKEAP1, 10 nM | 97
sgRNA knockout: sgKEAP1, 100 nM | 91.6
sgRNA knockout: sgKEAP1, 1000 nM | 81.22
sgRNA knockout: sgKEAP1, 10000 nM | 35.2
sgRNA knockout: sgNFE2L2, 10 nM | 98.9
sgRNA knockout: sgNFE2L2, 100 nM | 90.38
sgRNA knockout: sgNFE2L2, 1000 nM | 94
sgRNA knockout: sgNFE2L2, 10000 nM | 38.7
sgRNA knockout: sgSLC35F2, 10 nM | 88.6
sgRNA knockout: sgSLC35F2, 100 nM | 80.2
sgRNA knockout: sgSLC35F2, 1000 nM | 88.9
sgRNA knockout: sgSLC35F2, 10000 nM | 51.7
sgRNA knockout: sgXBP1, 10 nM | 99.6
sgRNA knockout: sgXBP1, 100 nM | 81.8
sgRNA knockout: sgXBP1, 1000 nM | 99.1
sgRNA knockout: sgXBP1, 10000 nM | 44.6

COC(=O)Nc1nc2cc(C(=O)c3ccccc3)ccc2[nH]1 [Mebendazole]
Details | relative cell number
sgRNA knockout: sgATF3, 10 nM | 85.7
sgRNA knockout: sgATF3, 100 nM | 95.8
sgRNA knockout: sgATF3, 1000 nM | 24.5
sgRNA knockout: sgATF3, 10000 nM | 30.2
sgRNA knockout: sgATF4, 10 nM | 98.2
sgRNA knockout: sgATF4, 100 nM | 85
sgRNA knockout: sgATF4, 1000 nM | 23.8
sgRNA knockout: sgATF4, 10000 nM | 28.1
sgRNA knockout: sgATF6, 10 nM | 88.4
sgRNA knockout: sgATF6, 100 nM | 90.4
sgRNA knockout: sgATF6, 1000 nM | 25.9
sgRNA knockout: sgATF6, 10000 nM | 20.7
sgRNA knockout: sgATG7, 10 nM | 86.4
sgRNA knockout: sgATG7, 100 nM | 84
sgRNA knockout: sgATG7, 1000 nM | 21
sgRNA knockout: sgATG7, 10000 nM | 26.3
sgRNA knockout: sgERN1, 10 nM | 86.2
sgRNA knockout: sgERN1, 100 nM | 79.2
sgRNA knockout: sgERN1, 1000 nM | 27.8
sgRNA knockout: sgERN1, 10000 nM | 27.5
sgRNA knockout: sgHSF1, 10 nM | 92.5
sgRNA knockout: sgHSF1, 100 nM | 78.66
sgRNA knockout: sgHSF1, 1000 nM | 22.2
sgRNA knockout: sgHSF1, 10000 nM | 27.5
sgRNA knockout: sgHSF2, 10 nM | 93.8
sgRNA knockout: sgHSF2, 100 nM | 90.7
sgRNA knockout: sgHSF2, 1000 nM | 32.3
sgRNA knockout: sgHSF2, 10000 nM | 24.5
sgRNA knockout: sgKEAP1, 10 nM | 84.4
sgRNA knockout: sgKEAP1, 100 nM | 78.5
sgRNA knockout: sgKEAP1, 1000 nM | 25.4
sgRNA knockout: sgKEAP1, 10000 nM | 25.4
sgRNA knockout: sgNFE2L2, 10 nM | 96.2
sgRNA knockout: sgNFE2L2, 100 nM | 87.4
sgRNA knockout: sgNFE2L2, 1000 nM | 33.6
sgRNA knockout: sgNFE2L2, 10000 nM | 28.7
sgRNA knockout: sgSLC35F2, 10 nM | 104
sgRNA knockout: sgSLC35F2, 100 nM | 106
sgRNA knockout: sgSLC35F2, 1000 nM | 30.1
sgRNA knockout: sgSLC35F2, 10000 nM | 27.4
sgRNA knockout: sgXBP1, 10 nM | 97.5
sgRNA knockout: sgXBP1, 100 nM | 82
sgRNA knockout: sgXBP1, 1000 nM | 24.4
sgRNA knockout: sgXBP1, 10000 nM | 30.9
